Further values from the same series stand in other lists.
Tests used:
Type in all cases: cell-based
Conditions in all cases: U-87MG ATCC
[1] = Inhibition of RTK/PI3K/AKT/mTOR signaling in human U87 cells assessed as down regulation of AHCYL2 gene expression at cytotoxic IC50 measured after 48 hrs relative to control
[2] = Inhibition of RTK/PI3K/AKT/mTOR signaling in human U87 cells assessed as down regulation of RTCA gene expression at cytotoxic IC50 measured after 48 hrs relative to control
[3] = Inhibition of RTK/PI3K/AKT/mTOR signaling in human U87 cells assessed as up regulation of keratin 19 gene expression at cytotoxic IC50 measured after 48 hrs relative to control
[4] = Inhibition of RTK/PI3K/AKT/mTOR signaling in human U87 cells assessed as down regulation of KIFAP3 gene expression at cytotoxic IC50 measured after 48 hrs relative to control
[5] = Inhibition of RTK/PI3K/AKT/mTOR signaling in human U87 cells assessed as down regulation of CCNE2 gene expression at cytotoxic IC50 measured after 48 hrs relative to control
[6] = Inhibition of RTK/PI3K/AKT/mTOR signaling in human U87 cells assessed as down regulation of CSGALNACT2 gene expression at cytotoxic IC50 measured after 48 hrs relative to control
[7] = Inhibition of RTK/PI3K/AKT/mTOR signaling in human U87 cells assessed as up regulation of C1orf21 gene expression at cytotoxic IC50 measured after 48 hrs relative to control
[8] = Inhibition of RTK/PI3K/AKT/mTOR signaling in human U87 cells assessed as down regulation of RAP1B gene expression at cytotoxic IC50 measured after 48 hrs relative to control
[9] = Inhibition of RTK/PI3K/AKT/mTOR signaling in human U87 cells assessed as down regulation of ASXL2 gene expression at cytotoxic IC50 measured after 48 hrs relative to control
[10] = Inhibition of RTK/PI3K/AKT/mTOR signaling in human U87 cells assessed as up regulation of TPBG gene expression at cytotoxic IC50 measured after 48 hrs relative to control
[11] = Inhibition of RTK/PI3K/AKT/mTOR signaling in human U87 cells assessed as up regulation of CCDC102A gene expression at cytotoxic IC50 measured after 48 hrs relative to control
[12] = Inhibition of RTK/PI3K/AKT/mTOR signaling in human U87 cells assessed as down regulation of RMDN3 gene expression at cytotoxic IC50 measured after 48 hrs relative to control
[13] = Inhibition of RTK/PI3K/AKT/mTOR signaling in human U87 cells assessed as down regulation of TMEM106C gene expression at cytotoxic IC50 measured after 48 hrs relative to control
[14] = Inhibition of RTK/PI3K/AKT/mTOR signaling in human U87 cells assessed as down regulation of CLPTM1 gene expression at cytotoxic IC50 measured after 48 hrs relative to control
[15] = Inhibition of RTK/PI3K/AKT/mTOR signaling in human U87 cells assessed as down regulation of RTFDC1 gene expression at cytotoxic IC50 measured after 48 hrs relative to control
[16] = Inhibition of RTK/PI3K/AKT/mTOR signaling in human U87 cells assessed as up regulation of POLRMT gene expression at cytotoxic IC50 measured after 48 hrs relative to control
[17] = Inhibition of RTK/PI3K/AKT/mTOR signaling in human U87 cells assessed as down regulation of MED10 gene expression at cytotoxic IC50 measured after 48 hrs relative to control
[18] = Inhibition of RTK/PI3K/AKT/mTOR signaling in human U87 cells assessed as up regulation of N-acetyltransferase 14 (putative) gene expression at cytotoxic IC50 measured after 48 hrs relative to control
[19] = Inhibition of RTK/PI3K/AKT/mTOR signaling in human U87 cells assessed as down regulation of CYTH2 gene expression at cytotoxic IC50 measured after 48 hrs relative to control
[20] = Inhibition of RTK/PI3K/AKT/mTOR signaling in human U87 cells assessed as up regulation of VMA21, vacuolar ATPase assembly factor gene expression at cytotoxic IC50 measured after 48 hrs relative to control
[21] = Inhibition of RTK/PI3K/AKT/mTOR signaling in human U87 cells assessed as down regulation of TP53I3 gene expression at cytotoxic IC50 measured after 48 hrs relative to control
[22] = Inhibition of RTK/PI3K/AKT/mTOR signaling in human U87 cells assessed as up regulation of AT-hook transcription factor gene expression at cytotoxic IC50 measured after 48 hrs relative to control
[23] = Inhibition of RTK/PI3K/AKT/mTOR signaling in human U87 cells assessed as up regulation of SYDE1 gene expression at cytotoxic IC50 measured after 48 hrs relative to control
[24] = Inhibition of RTK/PI3K/AKT/mTOR signaling in human U87 cells assessed as up regulation of KLF15 gene expression at cytotoxic IC50 measured after 48 hrs relative to control
[25] = Inhibition of RTK/PI3K/AKT/mTOR signaling in human U87 cells assessed as down regulation of COPS9 gene expression at cytotoxic IC50 measured after 48 hrs relative to control
[26] = Inhibition of RTK/PI3K/AKT/mTOR signaling in human U87 cells assessed as down regulation of CYHR1 gene expression at cytotoxic IC50 measured after 48 hrs relative to control
[27] = Inhibition of RTK/PI3K/AKT/mTOR signaling in human U87 cells assessed as down regulation of GNAI2 gene expression at cytotoxic IC50 measured after 48 hrs relative to control
[28] = Inhibition of RTK/PI3K/AKT/mTOR signaling in human U87 cells assessed as up regulation of MAN1A1 gene expression at cytotoxic IC50 measured after 48 hrs relative to control
[29] = Inhibition of RTK/PI3K/AKT/mTOR signaling in human U87 cells assessed as down regulation of GBA2 gene expression at cytotoxic IC50 measured after 48 hrs relative to control
[30] = Inhibition of RTK/PI3K/AKT/mTOR signaling in human U87 cells assessed as up regulation of SPINT2 gene expression at cytotoxic IC50 measured after 48 hrs relative to control
[31] = Inhibition of RTK/PI3K/AKT/mTOR signaling in human U87 cells assessed as up regulation of RASSF2 gene expression at cytotoxic IC50 measured after 48 hrs relative to control
[32] = Inhibition of RTK/PI3K/AKT/mTOR signaling in human U87 cells assessed as down regulation of ZZEF1 gene expression at cytotoxic IC50 measured after 48 hrs relative to control

For CC(=O)C(=NNc1ccccc1C#N)C(C)=O, the log2FC [1] was -0.695, the log2FC [2] was -0.745 and the log2FC [3] was 1.55. It also gave a log2FC [4] of -1.45, a log2FC [5] of -2.61 and a log2FC [6] of -0.612. It also gave a log2FC [7] of 1.71, a log2FC [8] of -0.663 and a log2FC [9] of -0.609. For the same molecule, the log2FC [10] was 0.467, the log2FC [11] was 2.12 and the log2FC [12] was -0.961. It also gave a log2FC [13] of -0.795, a log2FC [14] of -0.431 and a log2FC [15] of -0.521. For the same molecule, the log2FC [16] was 0.526, the log2FC [17] was -0.778 and the log2FC [18] was 1.03. It also gave a log2FC [19] of -0.507, a log2FC [20] of 0.662 and a log2FC [21] of -0.932. The log2FC [22] was 0.964, the log2FC [23] was 1.8 and the log2FC [24] was 2.04. It also gave a log2FC [25] of -1.14, a log2FC [26] of -1.1 and a log2FC [27] of -0.597. It also gave a log2FC [28] of 0.546, a log2FC [29] of -0.449 and a log2FC [30] of 0.604. The log2FC [31] was 1.94 and the log2FC [32] was -0.579.

— ChEMBL document CHEMBL4316593 (Eur J Med Chem, 2019)
